# The supplement of paper PMC6411743
# Protein sequences, listed by entry. Tags and fused reporters are not part of them. Lines headed by an entry give the natural chain unless they say otherwise; changes in a name come on top.
# UniProt Q15058: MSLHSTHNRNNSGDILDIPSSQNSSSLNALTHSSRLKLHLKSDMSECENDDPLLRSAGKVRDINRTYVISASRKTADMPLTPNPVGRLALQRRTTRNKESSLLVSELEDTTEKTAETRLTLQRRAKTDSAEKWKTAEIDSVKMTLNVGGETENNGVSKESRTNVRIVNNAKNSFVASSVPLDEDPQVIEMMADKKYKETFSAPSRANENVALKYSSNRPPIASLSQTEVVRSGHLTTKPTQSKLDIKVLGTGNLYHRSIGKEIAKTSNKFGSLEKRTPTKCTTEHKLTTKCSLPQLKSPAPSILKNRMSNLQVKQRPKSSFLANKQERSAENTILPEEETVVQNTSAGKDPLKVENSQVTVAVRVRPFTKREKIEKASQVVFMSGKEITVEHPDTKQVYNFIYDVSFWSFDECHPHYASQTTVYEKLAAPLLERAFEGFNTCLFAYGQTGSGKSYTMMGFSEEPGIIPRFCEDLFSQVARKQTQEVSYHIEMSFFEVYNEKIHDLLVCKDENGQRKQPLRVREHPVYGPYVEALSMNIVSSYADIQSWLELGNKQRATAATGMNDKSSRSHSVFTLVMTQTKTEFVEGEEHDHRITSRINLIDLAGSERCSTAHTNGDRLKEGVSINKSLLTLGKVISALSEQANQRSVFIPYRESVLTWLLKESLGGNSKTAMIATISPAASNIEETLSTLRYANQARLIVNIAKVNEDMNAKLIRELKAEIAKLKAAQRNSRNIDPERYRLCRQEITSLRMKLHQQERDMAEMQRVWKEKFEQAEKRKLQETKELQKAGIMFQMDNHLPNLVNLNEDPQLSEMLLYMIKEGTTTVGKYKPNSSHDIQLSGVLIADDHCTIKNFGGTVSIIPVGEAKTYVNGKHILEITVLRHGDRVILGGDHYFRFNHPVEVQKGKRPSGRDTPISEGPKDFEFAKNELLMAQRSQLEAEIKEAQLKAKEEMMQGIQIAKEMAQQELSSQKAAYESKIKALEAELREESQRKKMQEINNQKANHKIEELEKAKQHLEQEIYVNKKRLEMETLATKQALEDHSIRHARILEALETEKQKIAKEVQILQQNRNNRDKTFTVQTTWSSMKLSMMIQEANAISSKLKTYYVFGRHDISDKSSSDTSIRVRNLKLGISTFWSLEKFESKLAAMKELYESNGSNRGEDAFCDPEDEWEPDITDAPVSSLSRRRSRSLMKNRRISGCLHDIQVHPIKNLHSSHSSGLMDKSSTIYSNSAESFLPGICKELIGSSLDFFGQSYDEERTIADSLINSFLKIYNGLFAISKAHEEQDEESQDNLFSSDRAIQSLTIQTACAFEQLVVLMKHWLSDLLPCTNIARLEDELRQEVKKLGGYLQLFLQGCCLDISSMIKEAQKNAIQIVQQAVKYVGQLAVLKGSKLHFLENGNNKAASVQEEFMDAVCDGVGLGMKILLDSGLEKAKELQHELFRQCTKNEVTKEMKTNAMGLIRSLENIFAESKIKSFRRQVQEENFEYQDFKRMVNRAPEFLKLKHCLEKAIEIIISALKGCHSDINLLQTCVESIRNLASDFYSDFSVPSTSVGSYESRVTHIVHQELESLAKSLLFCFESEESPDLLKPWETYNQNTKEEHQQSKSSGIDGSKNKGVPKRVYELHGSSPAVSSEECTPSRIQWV
# UniProt Q15428: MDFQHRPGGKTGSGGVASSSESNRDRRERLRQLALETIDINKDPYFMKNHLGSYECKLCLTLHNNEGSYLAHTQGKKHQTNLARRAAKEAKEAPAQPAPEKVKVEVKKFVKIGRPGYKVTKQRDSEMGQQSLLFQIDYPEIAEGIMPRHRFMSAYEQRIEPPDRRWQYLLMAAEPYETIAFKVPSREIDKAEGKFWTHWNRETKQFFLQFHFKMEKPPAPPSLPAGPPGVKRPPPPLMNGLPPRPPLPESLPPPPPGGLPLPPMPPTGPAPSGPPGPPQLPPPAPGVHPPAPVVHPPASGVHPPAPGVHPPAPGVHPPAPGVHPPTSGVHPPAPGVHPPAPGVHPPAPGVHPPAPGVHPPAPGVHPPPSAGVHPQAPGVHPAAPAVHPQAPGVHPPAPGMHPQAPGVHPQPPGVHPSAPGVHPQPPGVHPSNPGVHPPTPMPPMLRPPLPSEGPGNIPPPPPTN
# UniProt Q15286: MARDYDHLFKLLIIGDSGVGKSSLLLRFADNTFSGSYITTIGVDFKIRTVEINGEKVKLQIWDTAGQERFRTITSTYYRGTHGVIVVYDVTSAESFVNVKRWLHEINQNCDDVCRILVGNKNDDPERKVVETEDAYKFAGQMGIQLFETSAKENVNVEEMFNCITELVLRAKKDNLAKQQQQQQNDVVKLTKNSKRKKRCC
# UniProt Q14247: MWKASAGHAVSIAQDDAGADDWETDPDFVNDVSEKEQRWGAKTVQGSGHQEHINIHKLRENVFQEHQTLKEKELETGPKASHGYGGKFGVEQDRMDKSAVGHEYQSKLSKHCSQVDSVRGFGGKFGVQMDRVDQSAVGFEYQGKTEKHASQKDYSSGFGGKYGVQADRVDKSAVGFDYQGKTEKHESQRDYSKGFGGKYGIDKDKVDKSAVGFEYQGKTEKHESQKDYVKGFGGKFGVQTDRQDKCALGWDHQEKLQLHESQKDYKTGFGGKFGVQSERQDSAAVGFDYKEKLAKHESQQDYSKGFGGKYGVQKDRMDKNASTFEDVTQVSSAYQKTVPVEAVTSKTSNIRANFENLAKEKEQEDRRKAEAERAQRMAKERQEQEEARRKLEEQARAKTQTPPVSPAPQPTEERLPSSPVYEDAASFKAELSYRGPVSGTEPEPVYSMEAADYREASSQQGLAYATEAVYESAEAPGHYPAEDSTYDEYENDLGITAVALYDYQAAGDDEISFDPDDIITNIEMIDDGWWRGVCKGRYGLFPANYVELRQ
# UniProt Q14257: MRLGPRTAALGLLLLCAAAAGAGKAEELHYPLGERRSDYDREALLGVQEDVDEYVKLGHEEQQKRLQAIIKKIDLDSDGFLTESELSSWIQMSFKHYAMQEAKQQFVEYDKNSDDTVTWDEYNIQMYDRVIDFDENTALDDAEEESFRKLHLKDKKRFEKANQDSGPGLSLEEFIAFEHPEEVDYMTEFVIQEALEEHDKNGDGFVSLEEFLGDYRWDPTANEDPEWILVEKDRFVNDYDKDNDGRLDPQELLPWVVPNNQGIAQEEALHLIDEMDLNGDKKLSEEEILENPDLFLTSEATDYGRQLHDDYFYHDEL
# UniProt Q1W6H9: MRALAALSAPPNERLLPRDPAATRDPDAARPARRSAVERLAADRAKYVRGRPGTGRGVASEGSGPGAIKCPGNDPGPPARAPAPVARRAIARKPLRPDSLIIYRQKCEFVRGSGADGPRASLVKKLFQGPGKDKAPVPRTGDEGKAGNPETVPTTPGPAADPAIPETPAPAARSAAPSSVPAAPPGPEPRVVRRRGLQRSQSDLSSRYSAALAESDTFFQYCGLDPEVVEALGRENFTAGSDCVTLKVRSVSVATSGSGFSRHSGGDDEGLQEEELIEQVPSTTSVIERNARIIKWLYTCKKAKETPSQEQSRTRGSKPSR
# UniProt Q14566: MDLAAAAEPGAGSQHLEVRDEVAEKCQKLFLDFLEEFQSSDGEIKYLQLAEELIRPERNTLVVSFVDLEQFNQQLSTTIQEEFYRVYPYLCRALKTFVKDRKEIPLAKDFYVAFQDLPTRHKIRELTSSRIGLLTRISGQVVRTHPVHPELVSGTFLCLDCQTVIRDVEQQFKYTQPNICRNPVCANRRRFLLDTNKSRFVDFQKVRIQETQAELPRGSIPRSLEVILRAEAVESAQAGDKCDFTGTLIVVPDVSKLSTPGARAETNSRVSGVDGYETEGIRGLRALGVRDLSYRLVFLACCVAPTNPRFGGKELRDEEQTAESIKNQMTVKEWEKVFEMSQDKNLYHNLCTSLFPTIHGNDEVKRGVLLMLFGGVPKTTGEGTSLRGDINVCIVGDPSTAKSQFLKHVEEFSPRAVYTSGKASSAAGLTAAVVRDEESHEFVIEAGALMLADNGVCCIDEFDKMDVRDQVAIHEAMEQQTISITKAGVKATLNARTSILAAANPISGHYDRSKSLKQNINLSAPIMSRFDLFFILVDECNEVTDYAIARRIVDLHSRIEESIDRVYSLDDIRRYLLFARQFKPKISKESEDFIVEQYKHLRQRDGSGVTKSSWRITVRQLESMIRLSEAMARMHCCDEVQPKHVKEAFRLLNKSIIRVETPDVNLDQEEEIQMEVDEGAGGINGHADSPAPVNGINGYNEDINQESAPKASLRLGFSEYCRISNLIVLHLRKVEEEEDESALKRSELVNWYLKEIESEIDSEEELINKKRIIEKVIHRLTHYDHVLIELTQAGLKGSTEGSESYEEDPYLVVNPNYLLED
# UniProt Q4G0N4: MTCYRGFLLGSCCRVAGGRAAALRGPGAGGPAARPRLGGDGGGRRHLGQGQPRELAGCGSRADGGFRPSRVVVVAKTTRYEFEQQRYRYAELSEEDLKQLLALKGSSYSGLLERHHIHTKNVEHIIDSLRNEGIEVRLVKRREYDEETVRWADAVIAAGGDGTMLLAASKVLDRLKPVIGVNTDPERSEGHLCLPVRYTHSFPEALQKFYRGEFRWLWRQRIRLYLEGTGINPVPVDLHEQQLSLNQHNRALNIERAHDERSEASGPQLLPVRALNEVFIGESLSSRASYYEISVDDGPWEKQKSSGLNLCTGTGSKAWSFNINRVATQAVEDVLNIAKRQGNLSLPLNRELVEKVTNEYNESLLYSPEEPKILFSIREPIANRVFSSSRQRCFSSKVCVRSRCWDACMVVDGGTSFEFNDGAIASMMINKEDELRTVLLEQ
# UniProt Q16531, whole entry: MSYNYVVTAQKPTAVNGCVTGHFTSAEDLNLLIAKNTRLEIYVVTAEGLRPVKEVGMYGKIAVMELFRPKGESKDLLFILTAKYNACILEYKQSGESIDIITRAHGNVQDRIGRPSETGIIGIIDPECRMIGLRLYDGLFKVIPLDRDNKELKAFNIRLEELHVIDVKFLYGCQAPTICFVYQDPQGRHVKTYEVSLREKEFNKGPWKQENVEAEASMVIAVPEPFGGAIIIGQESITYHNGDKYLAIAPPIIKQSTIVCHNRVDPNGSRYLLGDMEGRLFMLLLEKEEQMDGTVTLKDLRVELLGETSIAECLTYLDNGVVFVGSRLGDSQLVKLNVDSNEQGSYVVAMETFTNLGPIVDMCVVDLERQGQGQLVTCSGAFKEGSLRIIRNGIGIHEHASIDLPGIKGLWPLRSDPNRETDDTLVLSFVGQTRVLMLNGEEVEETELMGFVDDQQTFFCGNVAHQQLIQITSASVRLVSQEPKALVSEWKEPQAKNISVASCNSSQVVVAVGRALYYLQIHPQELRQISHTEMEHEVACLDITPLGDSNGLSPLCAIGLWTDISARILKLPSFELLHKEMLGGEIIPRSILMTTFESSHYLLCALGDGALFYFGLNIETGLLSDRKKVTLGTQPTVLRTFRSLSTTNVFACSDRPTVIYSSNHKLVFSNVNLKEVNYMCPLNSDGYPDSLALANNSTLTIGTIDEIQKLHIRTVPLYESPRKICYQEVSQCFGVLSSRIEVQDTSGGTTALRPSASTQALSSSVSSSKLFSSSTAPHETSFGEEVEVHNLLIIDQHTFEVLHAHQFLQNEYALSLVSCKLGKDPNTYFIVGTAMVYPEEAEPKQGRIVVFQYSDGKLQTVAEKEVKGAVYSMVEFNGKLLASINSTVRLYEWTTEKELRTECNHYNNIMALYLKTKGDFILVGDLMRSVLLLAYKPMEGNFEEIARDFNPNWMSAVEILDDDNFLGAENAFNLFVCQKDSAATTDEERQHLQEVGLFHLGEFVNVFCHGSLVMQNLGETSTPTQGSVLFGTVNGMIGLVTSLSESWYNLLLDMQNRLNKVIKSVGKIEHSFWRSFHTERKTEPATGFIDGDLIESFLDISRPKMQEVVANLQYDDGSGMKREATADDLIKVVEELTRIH
# UniProt Q4G148: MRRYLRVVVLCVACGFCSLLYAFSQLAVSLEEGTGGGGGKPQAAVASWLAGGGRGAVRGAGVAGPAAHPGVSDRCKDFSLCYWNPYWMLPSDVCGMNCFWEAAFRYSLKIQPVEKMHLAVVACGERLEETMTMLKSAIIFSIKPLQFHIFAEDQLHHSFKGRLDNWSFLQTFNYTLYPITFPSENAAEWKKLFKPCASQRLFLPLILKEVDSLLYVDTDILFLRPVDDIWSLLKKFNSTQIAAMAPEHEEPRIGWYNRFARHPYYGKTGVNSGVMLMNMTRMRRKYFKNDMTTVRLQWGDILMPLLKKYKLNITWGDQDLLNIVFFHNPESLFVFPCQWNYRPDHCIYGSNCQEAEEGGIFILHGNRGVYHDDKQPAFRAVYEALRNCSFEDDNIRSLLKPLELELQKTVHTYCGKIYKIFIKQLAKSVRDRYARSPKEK
# UniProt Q14691: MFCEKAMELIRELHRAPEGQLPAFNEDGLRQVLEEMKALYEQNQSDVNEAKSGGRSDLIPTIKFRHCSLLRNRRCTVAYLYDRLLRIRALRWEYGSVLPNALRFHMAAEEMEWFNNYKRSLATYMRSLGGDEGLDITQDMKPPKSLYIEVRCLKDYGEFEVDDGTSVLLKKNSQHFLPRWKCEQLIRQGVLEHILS
# ± gives the standard deviation of the averaged measurements. The entries are a selection whose mix differs from that of the whole data set. Most entries show no effect beyond the scatter of the controls.
# Compound: Nc1ncnc2c1ncn2[C@@H]1O[C@H](COP(=O)(O)OP(=O)(O)OP(=O)(O)O)[C@@H](O)[C@H]1O [adenosine triphosphate]
# Assay: NP40-soluble protein abundance relative to vehicle (solubility fold change) (ratio); higher = more soluble protein in presence of ATP
# Method in brief: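 Each value is a fold change relative to the detergent-processed vehicle, calculated per replicate from vsn-normalised intensities. Jurkat crude lysate received eight concentrations (0.1 to 10 mM) for 10 min at room temperature and 3 min at 37 °C, then was solubilised in 0.8% NP40 with benzonase (60 min, 4 °C). The ultracentrifuged supernatant was TMT-labelled and run by LC-MS/MS in three independent experiments.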
Target,NP40-soluble protein abundance (concentration: 0.1mM),NP40-soluble protein abundance (concentration: 0.5mM)
UniProt Q14156 and related entries,1.06 ± 0.077,0.983 ± 0.019
Q495G5 and related entries (UniProt Q8IVH4),1 ± 0.015,0.995 ± 0.038
UniProt Q15583 and related entries,0.891 ± 0.07,0.909 ± 0.066
TSC22D1 (UniProt Q15714),0.883 ± 0.16,0.956 ± 0.18
UniProt Q2M296 and related entries,1.09 ± 0.058,1.14 ± 0.2
TRIM25 (UniProt Q14258),1.03 ± 0.061,1.04 ± 0.062
RAB11B (UniProt Q15907),1.1 ± 0.16,1.03 ± 0.072
NCOA2 (UniProt Q15596),0.985 ± 0.017,1.01 ± 0.031
KIF14 (UniProt Q15058),0.924 ± 0.12,0.985 ± 0.12
SF3A2 (UniProt Q15428),1 ± 0.018,1.06 ± 0.045
LGALSL (UniProt Q3ZCW2),1.05 ± 0.068,1.08 ± 0.069
FAM53B (UniProt Q14153),1.02 ± 0.23,1.03 ± 0.16
UBE3C (UniProt Q15386),0.997 ± 0.097,0.989 ± 0.073
UniProt Q16222 and related entries,1.04 ± 0.053,1.01 ± 0.056
UniProt Q15286 and related entries,1.05 ± 0.068,1.05 ± 0.04
UniProt Q15390 and related entries,0.973 ± 0.053,0.954 ± 0.12
UniProt Q14596 and related entries,1.05 ± 0.21,0.956 ± 0.098
UniProt Q15555 and related entries,0.932 ± 0.017,0.918 ± 0.012
PPA1 (UniProt Q15181),1.01 ± 0.065,1.04 ± 0.068
UniProt Q16352,1.08 ± 0.059,1.1 ± 0.094
UniProt Q3B7T1,0.9772 ± 0.0078,1.01 ± 0.024
ACAP2 (UniProt Q15057),1.05 ± 0.064,1.01 ± 0.042
PUS10 (UniProt Q3MIT2),0.997 ± 0.067,1.1 ± 0.022
UniProt Q2M1P5,1.1 ± 0.18,1.03 ± 0.1
UniProt Q14197,0.923 ± 0.08,0.961 ± 0.082
ZNF638 (UniProt Q14966),1 ± 0.018,1.04 ± 0.054

Target,NP40-soluble protein abundance (concentration: 0.1mM),NP40-soluble protein abundance (concentration: 0.5mM)
PSME4 (UniProt Q14997),1.05 ± 0.072,1.02 ± 0.061
UniProt Q32MZ4 and related entries,0.965 ± 0.032,0.973 ± 0.041
TTF1 (UniProt Q15361),0.938 ± 0.086,0.87 ± 0.14
UniProt Q15262-2|Q15262-3|Q15262 and related entries,0.987 ± 0.022,0.942 ± 0.026
TST (UniProt Q16762),1.04 ± 0.032,0.993 ± 0.025
PGGHG (UniProt Q32M88),1 ± 0.1,0.976 ± 0.11
UniProt Q3V6T2 and related entries,1.01 ± 0.018,1.03 ± 0.055
UniProt Q27J81 and related entries,0.986 ± 0.067,0.977 ± 0.015
ELAVL1 (UniProt Q15717),1.01 ± 0.03,1.02 ± 0.037
UBXN2B (UniProt Q14CS0),0.997 ± 0.019,0.856 ± 0.079
UniProt Q15750 and related entries,0.9946 ± 0.0011,1.03 ± 0.065
SUZ12 (UniProt Q15022),1.08 ± 0.041,1.13 ± 0.044
FAM50A (UniProt Q14320),0.971 ± 0.049,0.962 ± 0.035
UniProt Q15599 and related entries,0.965 ± 0.066,0.94 ± 0.053
UniProt Q15121 and related entries,0.904 ± 0.062,0.858 ± 0.072
UniProt Q16537 and related entries,0.995 ± 0.054,1.02 ± 0.038
UniProt Q14240-2|Q14240,1.01 ± 0.078,1.18 ± 0.057
LARS2 (UniProt Q15031),1.05 ± 0.075,1.03 ± 0.049
UniProt Q14247 and related entries,0.999 ± 0.019,1.05 ± 0.064
UniProt Q14257 and related entries,0.969 ± 0.026,0.976 ± 0.032
UniProt Q14157-4|Q14157-5|Q14157,0.986 ± 0.011,1.02 ± 0.043
UniProt Q1W6H9,1.15 ± 0.055,1.07 ± 0.054
ZNF146 (UniProt Q15072),1.05 ± 0.08,1.08 ± 0.1
UniProt Q15788 and related entries,0.952 ± 0.028,0.982 ± 0.018
UniProt Q15560 and related entries,1.08 ± 0.1,0.971 ± 0.055
HNRNPUL2 (UniProt Q1KMD3),0.982 ± 0.074,1.03 ± 0.092

Target,NP40-soluble protein abundance (concentration: 0.1mM),NP40-soluble protein abundance (concentration: 0.5mM)
WRN (UniProt Q14191),1.11 ± 0.068,1.19 ± 0.058
MCM6 (UniProt Q14566),1.03 ± 0.065,0.989 ± 0.04
UniProt Q14978-2,0.96 ± 0.042,0.781 ± 0.035
PAFAH1B3 (UniProt Q15102),0.956 ± 0.04,0.89 ± 0.058
MAN2A1 (UniProt Q16706),0.968 ± 0.067,0.949 ± 0.043
UniProt Q4G0N4,1.03 ± 0.075,1.04 ± 0.053
DDB1 (UniProt Q16531),1.04 ± 0.093,1.04 ± 0.05
UniProt Q4G148 and related entries,0.924 ± 0.021,0.878 ± 0.099
UniProt Q15796 and related entries,1 ± 0.035,0.988 ± 0.046
MORC3 (UniProt Q14149),1.04 ± 0.05,1.06 ± 0.03
UniProt Q16539 and related entries,1.01 ± 0.04,1.02 ± 0.03
SAFB2 (UniProt Q14151),0.992 ± 0.071,0.96 ± 0.051
STXBP2 (UniProt Q15833),1.01 ± 0.046,1.03 ± 0.031
UniProt Q15650 and related entries,0.992 ± 0.11,0.905 ± 0.093
UniProt Q16864 and related entries,0.985 ± 0.052,0.998 ± 0.041
GNA13 (UniProt Q14344),1.04 ± 0.064,1.07 ± 0.087
PTPRCAP (UniProt Q14761),0.832 ± 0.092,0.847 ± 0.097
UniProt Q3ZAQ7 and related entries,0.936 ± 0.04,0.901 ± 0.079
ETFDH (UniProt Q16134),1.07 ± 0.058,1.03 ± 0.052
TERF2 (UniProt Q15554),0.9877 ± 0.005,1.06 ± 0.053
FAM98C (UniProt Q17RN3),0.989 ± 0.039,0.949 ± 0.078
GINS1 (UniProt Q14691),0.9912 ± 0.0038,0.952 ± 0.064
UniProt Q15067-2,1.02 ± 0.049,0.989 ± 0.013
E2F4 (UniProt Q16254),0.956 ± 0.052,0.963 ± 0.078
UniProt Q14694 and related entries,1.02 ± 0.028,1.07 ± 0.041
UniProt Q15056 and related entries,0.975 ± 0.045,0.9495 ± 0.0042

# As entered above.
# Entry for E2F4 (UniProt Q16254) under NP40-soluble protein abundance (concentration: 0.1mM): 0.956 ± 0.052
# Entry for TERF2 (UniProt Q15554) under NP40-soluble protein abundance (concentration: 0.5mM): 1.06 ± 0.053
# Entry for UniProt Q4G148 and related entries under NP40-soluble protein abundance (concentration: 0.5mM): 0.878 ± 0.099
# Entry for UniProt Q16539 and related entries under NP40-soluble protein abundance (concentration: 0.5mM): 1.02 ± 0.03
